Results from patent publication US11555031B2, “Compounds and methods for regulating insulin secretion” (The Broad Institute, Inc., priority 2017, dated 2023).
At least one structure is not confirmed: it was looked up by name or label, or the drawing left a doubt.

System: cAMP
Assay: cAMP HTRF assay (Cisbio)
Type: cell-based
Conditions: HTRF competition assay; increase in cAMP seen as decrease in signal
Description: FIG. 9 depicts the quantification of cAMP activity in cells treated with the indicated compound in a HTRF assay from Cisbio.
Further investigation into Compound 8 included measuring levels of the secondary messengers cAMP (FIG. 9) and IP-1 (not shown) in treated cells, as compounds that increase these secondary messengers are known to augment insulin secretion, though often in ways that are not beta-cell specific.
CellTiter-Glo (Promega) and the cAMP Dynamic-2 HTRF assay (Cisbio) were used according to the manufacturers' instructions. Luciferase secretion and CellTiter-Glo experiments were performed using a 1 hr incubation with compound, whereas the cAMP assay was performed using a 30 min incubation. Secretion experiments were run in KRB buffer; all other experiments were run in standard INS-1E medium.

C=C[C@@]1(C)CC(=O)[C@]2(O)[C@@]3(C)[C@@H](O)CCC(C)(C)[C@@H]3[C@H](O)[C@H](OC(C)=O)[C@@]2(C)O1 [forskolin, Forskolin, reference compound]
cAMP level: increase in cAMP
